# Test results as given in the supplement of paper PMC4683952.
# Structures can show the parent of a compound that is named as a salt. Hit rate of the full screen: of about 1,200 compounds, about 50 (4%) showed activity. Rule as the data show it: all actives reach 1.3 or more but so do some inactives. The list shows a part of the results.
# Test system: Lgr5 (MarsCy1-Lgr5-EGFP, U2OS)
# Experiment: cell-surface Lgr5 expression (SCi1 fluorescence, background-subtracted) relative to WT DMSO (fold of DMSO control); higher = more Lgr5 at the plasma membrane, active = hit call of the paper
# Settings: U2OS MarsCy1-Lgr5-EGFP stable; treatment time: overnight; 16 µM; library: Johns Hopkins Clinical Compound Library
row,SMILES,cell-surface Lgr5 expression
1,OC[C@@H](O)[C@@H](O[C@@H]1O[C@H](CO)[C@H](O)[C@H](O)[C@H]1O)[C@H](O)[C@@H](O)CO [Lactitol monohydrate],inactive: 1.05
2,c1ccc2[nH]c(-c3cscn3)nc2c1 [Thiabendazole],inactive: 1.22
3,CN1[C@@H](CC(=O)c2ccccc2)CCC[C@H]1C[C@H](O)c1ccccc1 [Lobeline (-) Hydrochloride],inactive: 1.15
4,NC(=O)NC(=O)Cc1ccccc1 [Phenacemide (Phenylacetylurea)],inactive: 0.523
5,O=C1OC2(c3ccc(O)cc3Oc3cc(O)ccc32)c2ccccc21 [Fluorescein],inactive: 0.746
6,COc1cnc(NS(=O)(=O)c2ccc(N)cc2)nc1 [Sulfameter],inactive: 0.961
7,Cc1cccc(CN2CCN(C(c3ccccc3)c3ccc(Cl)cc3)CC2)c1 (stereo not drawn) [Meclizine],inactive: 0.976
8,CCCCC(C)(O)C/C=C/[C@H]1[C@H](O)CC(=O)[C@@H]1CCCCCCC(=O)OC (mixture of isomers) [Misoprostol],inactive: 1.07
9,CNCCC(Oc1ccccc1OC)c1ccccc1 (stereo not drawn) [Nisoxetine hydrochloride],inactive: 1.05
10,COc1ccccc1O [Guaiacol],inactive: 1.1
11,O=NN(CCCl)C(=O)NC1CCCCC1 [Lomustine],inactive: 1.37
12,[Cl][Fe]([Cl])[Cl] [Ferric chloride anhydrous],inactive: 0.998
13,CC(C)NCC(O)COc1cccc2ccccc12 (stereo not drawn) [Propranolol],inactive: 1.07
14,CC(=O)N[C@@H]([C@@H](O)[C@H](O)[C@H](O)CO)[C@@H](O)CC(=O)C(=O)O [Aceneuramic acid (N-Acetylneuraminic acid)],inactive: 1.16
15,CCCCCCc1ccc(O)cc1O [4 Hexylresorcinol],inactive: 1.06
16,O=C1CCc2cc(OCCCCc3nnnn3C3CCCCC3)ccc2N1 [Cilostazol],inactive: 1.03
17,CCS(=O)(=O)CCn1c([N+](=O)[O-])cnc1C [Tinidazole],inactive: 0.994
18,O=P(O)(O)C(Cl)(Cl)P(=O)(O)O,inactive: 0.743
19,O=P(O)(O)C(Cl)(Cl)P(=O)(O)O [Clodronate disodium],inactive: 0.683
20,CCC1=C(C)CN(C(=O)NCCc2ccc(S(=O)(=O)NC(=O)N[C@H]3CC[C@H](C)CC3)cc2)C1=O [Glimepiride],inactive: 1.01
21,C.CCC(C)C.CCC(CC(C)c1ccccc1)c1ccc(C[N+](C)(C)C)cc1 (stereo not drawn) [Cholestyramine resin],inactive: 0.898
22,CCCCn1c(=O)c2c(ncn2CC(C)=O)n(CCCC)c1=O [Denbufylline],inactive: 1.44
23,"COc1ccc2cc1Oc1ccc(cc1)C[C@H]1c3cc(c(OC)cc3CCN1C)Oc1c(OC)c(OC)cc3c1[C@H](C2)N(C)CC3 [Tetrandrine (s,s +)]",inactive: 1.03

# 2 entries from above, tab-delimited.
row	SMILES	cell-surface Lgr5 expression
8	CCCCC(C)(O)C/C=C/[C@H]1[C@H](O)CC(=O)[C@@H]1CCCCCCC(=O)OC (mixture of isomers) [Misoprostol]	inactive: 1.07
9	CNCCC(Oc1ccccc1OC)c1ccccc1 (stereo not drawn) [Nisoxetine hydrochloride]	inactive: 1.05

# Part of the list above, with bars between the fields.
row | SMILES | cell-surface Lgr5 expression
1 | OC[C@@H](O)[C@@H](O[C@@H]1O[C@H](CO)[C@H](O)[C@H](O)[C@H]1O)[C@H](O)[C@@H](O)CO [Lactitol monohydrate] | inactive: 1.05
2 | c1ccc2[nH]c(-c3cscn3)nc2c1 [Thiabendazole] | inactive: 1.22

# Additional results.

row,SMILES,cell-surface Lgr5 expression
1,OCc1cc(C(O)CNCCCCCCOCCCCc2ccccc2)ccc1O (stereo not drawn) [Salmeterol (serevent discus)],inactive: 1.19
2,O=S(=O)([O-])[O-].O=S(=O)([O-])[O-].[Al+3].[Na+] [Aluminum sodium sulfate],inactive: 0.71
3,N=C(N)NCCC[C@H](N)C(=O)O [L-Arginine],inactive: 0.917
4,O=c1oc2cc(O)ccc2c2oc3cc(O)ccc3c12 [Coumestrol],inactive: 1.03
5,C=C1c2c(Cl)ccc(O)c2C(O)=C2C(=O)[C@]3(O)C(O)=C(C(N)=O)C(=O)[C@@H](N(C)C)[C@@H]3[C@@H](O)[C@H]12.O=C(O)c1cc(S(=O)(=O)O)ccc1O [Meclocycline sulfosalicylate salt],inactive: 0.705
6,CNCCC(Oc1ccc(C(F)(F)F)cc1)c1ccccc1 (stereo not drawn) [Fluoxetine],inactive: 0.305
7,Cc1nc2n(c(=O)c1CCN1CCC(c3noc4cc(F)ccc34)CC1)CCCC2 [Risperidone],inactive: 0.587
8,CC1(C)S[C@@H]2[C@H](NC(=O)COc3ccccc3)C(=O)N2[C@H]1C(=O)O.CN(C)[C@@H]1C(O)=C(C(=O)NCN2CCN(CCO)CC2)C(=O)[C@@]2(O)C(O)=C3C(=O)c4c(O)cccc4[C@@](C)(O)[C@H]3C[C@@H]12 [Penimepicycline],inactive: 0.846
9,Nc1ncnc2c1ncn2[C@@H]1O[C@H](COP(=O)(O)OP(=O)(O)OP(=O)(O)O)[C@@H](O)[C@H]1O [Adenosine triphosphate disodium (ATP)],inactive: 0.944
10,CC(=O)N[C@H]1[C@H]([C@H](O)[C@H](O)CO)OC(C(=O)O)=C[C@@H]1NC(=N)N [Zanamivir],inactive: 1.26
11,CCN1CC(CCN2CCOCC2)C(c2ccccc2)(c2ccccc2)C1=O (stereo not drawn) [Doxapram hydrochloride],inactive: 1
12,CCCCNC(=O)NS(=O)(=O)c1ccc(C)cc1 [Tolbutamide],inactive: 0.945
13,CC(=O)[C@H]1CC[C@H]2[C@@H]3C[C@H](C)C4=CC(=O)CC[C@]4(C)[C@H]3[C@@H](O)C[C@]12C [Medrysone (6-alpha-Methyl-11-beta-Hydroxyprogesterone)],inactive: 1.27
14,"CCCCCCN(C)C [N,N-Dimethylhexylamine]",inactive: 1.05
15,O=S(=O)(O)CCS [Mesna (2-Mercaptoethanesulfonic acid)],inactive: 0.844
16,O=S(=O)(O)CCS [Mesna (2-Mercaptoethane Sulfonic Acid Sodium Salt)],inactive: 0.815
17,CC(=O)Nc1c(I)c(C(=O)O)c(I)c(N(C)C(C)=O)c1I [Metrizoic acid],inactive: 1.1
18,CC(C)(C)NC[C@H](O)c1ccc(O)c(CO)c1 [Levalbuterol],inactive: 0.94
19,"C[C@@H](C1=C(CCN(C)C)Cc2ccccc21)c1ccccn1 [Dimethindene (S, +) maleate]",inactive: 1.32
20,Cc1c(C)c2c(c(C)c1O)CC[C@@](C)(CCC[C@H](C)CCC[C@H](C)CCCC(C)C)O2 [Vitamin E],inactive: 0.965
21,CC(C)c1nc(CN(C)C(=O)N[C@H](C(=O)N[C@@H](Cc2ccccc2)C[C@H](O)[C@H](Cc2ccccc2)NC(=O)OCc2cncs2)C(C)C)cs1.Cc1cccc(C)c1OCC(=O)N[C@@H](Cc1ccccc1)[C@@H](O)C[C@H](Cc1ccccc1)NC(=O)[C@H](C(C)C)N1CCCNC1=O [Lopinavir/Ritonavir],inactive: 0.373
22,O=C(O)c1cc(O)c(O)c(O)c1 [Gallic acid],inactive: 0.979
23,CN1CCC[C@H]1c1cccnc1 [Nicotine],inactive: 0.465

row,SMILES,cell-surface Lgr5 expression
1,CCCCCCCCCCCCN [Dodecylamine],inactive: 0.823
2,Clc1ccc(COC(Cn2ccnc2)c2ccc(Cl)cc2Cl)cc1 (stereo not drawn) [Econazole],inactive: 0.806
3,Clc1ccccc1C(c1ccccc1)(c1ccccc1)n1ccnc1 [Clotrimazole],inactive: 0.707
4,NC(=O)NO [Hydroxyurea],inactive: 1.04
5,CC(=O)c1ccc2c(c1)N(CCCN1CCN(CCO)CC1)c1ccccc1S2 [Acetophenazine maleate],inactive: 1.05
6,CCN1CCCC1CNC(=O)c1cc(S(N)(=O)=O)ccc1OC (racemic) [Sulpiride (+/-)-],inactive: 1.07
7,O=C(O)c1cc(=O)c2c(OCC(O)COc3cccc4oc(C(=O)O)cc(=O)c34)cccc2o1 [Cromolyn],inactive: 0.94
8,CCCCOc1ccc(CC(=O)NO)cc1 [Bufexamac],active: 1.82
9,CC(=O)OC(C)C[N+](C)(C)C (stereo not drawn) [Methacholine chloride],inactive: 0.738
10,O=C([O-])[O-].[Ca+2] [Calcium carbonate],inactive: 0.936
11,CCCCCCCCCCCCCCCCO [Cetyl alcohol (1-Hexadecanol)],inactive: 1.27
12,O=S(=O)(O)c1cc(O)c2c(/N=N/c3ccc(Nc4ccccc4)c4c(S(=O)(=O)O)cccc34)cc(S(=O)(=O)O)cc2c1 [Anazolene sodium (Acid blue 92)],inactive: 1.23
13,Cc1c(O)cccc1C(=O)N[C@@H](CSc1ccccc1)[C@H](O)CN1C[C@H]2CCCC[C@H]2C[C@H]1C(=O)NC(C)(C)C [Nelfinavir mesylate],inactive: 0.364
14,CCSc1ccc2c(c1)N(CCCN1CCN(C)CC1)c1ccccc1S2 [Thiethylperazine malate],inactive: 1.12
15,CN(C)CCC(c1ccccc1)c1ccccn1 (stereo not drawn) [Pheniramine],inactive: 1.02
16,O[C@@H]1CO[C@H]2[C@@H]1OC[C@@H]2O [Isosorbide],inactive: 1.26
17,O=C1NC(c2ccccc2)(c2ccccc2)C(=O)N1COP(=O)(O)O [Fosphenytoin sodium],inactive: 0.73
18,"O=C(O)[C@@H](S)[C@@H](S)C(=O)O [Succimer (meso-2,3-dimercaptosuccinic acid)]",inactive: 0.767
19,CCOc1nc2cccc(C(=O)OC(C)OC(=O)OC3CCCCC3)c2n1Cc1ccc(-c2ccccc2-c2nn[nH]n2)cc1 (stereo not drawn) [Candesartan cilexetil],inactive: 0.874
20,"O=C([O-])CN(CCN(CC(=O)[O-])CC(=O)[O-])CC(=O)[O-].[Fe+3].[Na+] [Sodium feredetate (Ethylenediaminetetraacetic acid, EDTA)]",inactive: 0.765
21,CNC1(C)C2CCC(C2)C1(C)C (stereo not drawn) [Mecamylamine],inactive: 1.13
22,CCCCCCCCCCCCCCCCCC(=O)[O-].CCCCCCCCCCCCCCCCCC(=O)[O-].[Zn+2] [Zinc stearate],inactive: 0.658
